From doi:10.1101/2022.12.12.520143 come the findings set out here.

Assay [1] addresses PAS/LOV protein (PLP), BiFC fusion (Solanum lycopersicum (tomato)). In words: split reporter.
The target of assay [2] is PAS/LOV protein (PLP) fused to the tetracycline repressor (TetR) (Solanum lycopersicum (tomato)). In words: two-hybrid.

No constants are given. Whether binding was seen depends on the method and setting. Binding calls can cover weak binding; strength is not graded here. For some assays here: In cells and extracts the contact can be indirect.

As to “GDP-L-galactose phosphorylase 1 (GGP1), BiFC fusion (from UniProt A0A3Q7H2M3) (enzyme)”, in assay [1], the binding entry is “binds”.

Consider “GDP-L-galactose phosphorylase 2 (GGP2) coupled to the VP16 transactivation domain (from UniProt A0A3Q7FCT3) (enzyme)”, for which the binding entry in assay [2] is listed as “binds”.
